From paper PMC10394019
No constants are given. Whether binding was seen depends on the method and setting. Binding seen in cells or lysates may run through a third protein. A yes stands for co-enrichment or nearness to the bait. Other partners may have been found.

The chains behind the UniProt entries cited, without tags or fusion partners.
UniProt Q13616: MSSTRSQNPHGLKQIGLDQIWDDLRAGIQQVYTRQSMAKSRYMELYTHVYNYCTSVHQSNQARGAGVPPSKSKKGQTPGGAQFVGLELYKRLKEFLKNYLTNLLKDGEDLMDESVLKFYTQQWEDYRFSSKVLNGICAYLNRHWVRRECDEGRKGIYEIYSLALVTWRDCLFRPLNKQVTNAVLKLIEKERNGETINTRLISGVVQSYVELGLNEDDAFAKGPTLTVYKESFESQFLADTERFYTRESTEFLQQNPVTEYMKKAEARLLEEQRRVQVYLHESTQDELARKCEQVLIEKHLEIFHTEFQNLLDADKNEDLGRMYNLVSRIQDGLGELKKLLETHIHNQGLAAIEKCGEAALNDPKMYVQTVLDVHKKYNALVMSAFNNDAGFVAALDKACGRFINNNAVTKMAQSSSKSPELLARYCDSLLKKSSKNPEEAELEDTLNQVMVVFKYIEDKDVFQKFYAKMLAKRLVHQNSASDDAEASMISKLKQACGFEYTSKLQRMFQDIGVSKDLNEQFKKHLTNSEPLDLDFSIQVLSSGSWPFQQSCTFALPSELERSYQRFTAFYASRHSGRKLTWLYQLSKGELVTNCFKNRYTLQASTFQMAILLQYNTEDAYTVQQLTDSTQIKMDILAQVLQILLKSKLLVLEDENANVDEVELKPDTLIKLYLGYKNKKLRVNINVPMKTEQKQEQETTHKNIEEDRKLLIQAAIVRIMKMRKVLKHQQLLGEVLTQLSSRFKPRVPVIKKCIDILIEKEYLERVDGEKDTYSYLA
UniProt Q6P3S6: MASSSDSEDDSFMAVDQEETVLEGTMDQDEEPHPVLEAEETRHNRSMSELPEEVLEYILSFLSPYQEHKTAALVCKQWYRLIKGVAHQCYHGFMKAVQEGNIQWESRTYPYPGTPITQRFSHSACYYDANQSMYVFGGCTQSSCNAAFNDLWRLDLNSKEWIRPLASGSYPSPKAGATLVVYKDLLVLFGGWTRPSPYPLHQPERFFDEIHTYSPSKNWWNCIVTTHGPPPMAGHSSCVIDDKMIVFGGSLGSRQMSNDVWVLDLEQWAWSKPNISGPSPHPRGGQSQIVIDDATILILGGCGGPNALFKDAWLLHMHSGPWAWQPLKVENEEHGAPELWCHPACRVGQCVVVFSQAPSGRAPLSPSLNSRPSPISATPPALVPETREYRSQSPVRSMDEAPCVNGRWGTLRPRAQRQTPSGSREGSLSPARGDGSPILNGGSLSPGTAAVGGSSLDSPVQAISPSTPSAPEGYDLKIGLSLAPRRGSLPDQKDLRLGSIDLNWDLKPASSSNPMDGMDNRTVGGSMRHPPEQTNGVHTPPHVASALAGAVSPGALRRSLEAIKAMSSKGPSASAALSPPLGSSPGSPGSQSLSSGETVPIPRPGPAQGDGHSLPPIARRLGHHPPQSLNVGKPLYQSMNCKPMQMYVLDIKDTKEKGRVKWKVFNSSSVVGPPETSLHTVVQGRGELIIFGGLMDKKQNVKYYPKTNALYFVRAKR

B1: acetyl-CoA acyltransferase 2 (ACAA2) (enzyme, UniProt P42765 1-397)
chain: MALLRGVFVVAAKRTPFGAYGGLLKDFTATDLSEFAAKAALSAGKVSPETVDSVIMGNVLQSSSDAIYLARHVGLRVGIPKETPALTINRLCGSGFQSIVNGCQEICVKEAEVVLCGGTESMSQAPYCVRNVRFGTKLGSDIKLEDSLWVSLTDQHVQLPMAMTAENLAVKHKISREECDKYALQSQQRWKAANDAGYFNDEMAPIEVKTKKGKQTMQVDEHARPQTTLEQLQKLPPVFKKDGTVTAGNASGVADGAGAVIIASEDAVKKHNFTPLARIVGYFVSGCDPSIMGIGPVPAISGALKKAGLSLKDMDLVEVNEAFAPQYLAVERSLDLDISKTNVNGGAIALGHPLGGSGSRITAHLVHELRRRGGKYAVGSACIGGGQGIAVIIQSTA

Molecular target: Cullin1 (human (endogenous in L02 and THLE-2)) (UniProt Q13616)
Test: affinity purification with mass spectrometry; Co-IP of Cullin1 from lysates of L02 cells treated with PA (0.4 mM, 24 h) and transfected with NC or siCAND1; quantitative mass spectrometry (Orbitrap Fusion)

Molecule	binding
F-box only protein 42 (FBXO42) (from UniProt Q6P3S6 1-717)	binds
B1	binds
